According to US20180291096A1:
Results are given in words; binding and its absence hold for the method and conditions named. Some binding calls cover weakened binding; strength is not graded here.

Amino acid sequences for entries named in this document (tags omitted). A change or cut given only in a name is not applied to a line headed by its entry.
UniProt P29460: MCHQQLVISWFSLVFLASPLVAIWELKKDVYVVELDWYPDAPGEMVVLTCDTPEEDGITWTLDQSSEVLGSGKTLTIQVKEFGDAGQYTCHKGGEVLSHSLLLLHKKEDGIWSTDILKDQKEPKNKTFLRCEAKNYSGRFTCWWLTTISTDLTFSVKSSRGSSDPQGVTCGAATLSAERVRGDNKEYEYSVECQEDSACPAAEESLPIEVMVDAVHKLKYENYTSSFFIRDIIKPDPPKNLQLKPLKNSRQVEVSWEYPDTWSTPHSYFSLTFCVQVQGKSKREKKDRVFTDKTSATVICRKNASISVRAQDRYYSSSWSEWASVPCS

B1: MOR04658 Fab (Fab, V domains shown)
VH: QVQLVESGGGLVQPGGSLRLSCAASGFTFSSFGMSWVRQAPGKGLEWVSNISSSGSSTYYADSVKGRFTISRDNSKNTLYLQMNSLRAEDTAVYYCARYWGTPYLMQFDNWGQGTLVTVSS
VL: DIALTQPASVSGSPGQSITISCTGTSSDVGGYNSVSWYQQHPGKAPKLMIYSVSSRPSGVSNRFSGSKSGNTASLTISGLQAEDEADYYCSSYDTNKPLVVFGGGTKLTVL
B2: MOR04205 Fab (Fab, V domains shown)
VH: QVQLVQSGAEVKKPGESLKISCKGSGYSFTNYWISWVRQAPGKGLEWMGWIRPGDSDTRYSPSFEGQVTISADKSISTAYLQWSSLKASDTAMYYCARHYYGMDYWGQGTLVTVSS
VL: DIVLTQPPSVSGAPGQRVTISCSGSSSNIGSYYVNWYQQLPGTAPKLLIYGNTHRPSGVPDRFSGSKSGTSASLAITGLQSEDEADYYCQTYASLGPGEVFGGGTKLTVL
B3: MOR04217 Fab (Fab, V domains shown)
VH: QVQLVESGGGLVQPGGSLRLSCAASGFTFSSYWITWVRQAPGKGLEWVSYISSSGSSTYYADSVKGRFTISRDNSKNTLYLQMNSLRAEDTAVYYCARGTFWSFGNYFANWGQGTLVTVSS
VL: DIVLTQSPATLSLSPGERATLSCRASQSIFYNLAWYQQKPGQAPRLLIYGASNRATGVPARFSGSGSGTDFTLTISSLEPEDFATYYCQQYSSEPVTFGQGTKVEIK
B4: MOR04649 Fab (Fab, V domains shown)
VH: QVQLVQSGAEVKKPGESLKISCKGSGYSFSNYWIGWVRQMPGKGLEWMGIIDPSNSYTNYSPSFQGQVTISADKSISTAYLQWSSLKASDTAMYYCARWYYKPFDVWGQGTLVTVSS
VL: DIVLTQPPSVSGAPGQRVTISCTGSSSNIGSGYDVHWYQQLPGTAPKLLIYGNSKRPSGVPDRFSGSKSGTSASLAITGLQSEDEADYYCSSWTPSSVVFGGGTKLTVL

biological target: linked rhIL-23 with no His-tag (from R&D Systems) (human) (UniProt P29460); assay: ELISA, antigen in solution on immobilized Fab

binding	Binder
binds	B1
binds	B2
binds	B3
binds	B4
